Our source for the IC50 values is paper PMC5221799 (International Journal of Nanomedicine, 2016).

Like-named read-outs stand apart in the source and are kept apart here.

For orientation: IC50 means the concentration that gives 50% inhibition.

The test system of the assay is MCF7 (Dox-sensitive) cells. The experiment in a line: CCK-8 cytotoxicity assay in MCF7 cells. Type of assay: cell-based, human.

Take `COc1cccc2c1C(=O)c1c(O)c3c(c(O)c1C2=O)C[C@@](O)(C(=O)CO)C[C@@H]3O[C@H]1C[C@H](N)[C@H](O)[C@H](C)O1` [Free Dox, doxorubicin]: the IC50 is, setting by setting: (read-out: IC50 of Dox or equivalent NLS-Dox, 48 hours, CCK-8, mean ± SD (n=5)) 2.43 ± 0.22 µM; (read-out: IC50 of Dox or equivalent NLS-Dox, 96 hours, CCK-8, mean ± SD (n=5)) 0.61 ± 0.17 µM.
